Measured values published in patent US6034230A, “Nucleic acids encoding myocardial peptides” (priority 1999, dated 2000).
Not every detail of the peptide structures is certain; ends, links or a residue may be inferred. No end group written: not given here.

System: Balb/c mice
Assay: Induction of inflammatory cardiomyopathy in mice by immunization with peptide in Freund's complete adjuvant (heart histology, day 21)
Details: mouse, in vivo

Ac-KIEAAAAESLATRFIA [C. psitt. CRP]
Percent (prevalence of inflammatory cardiomyopathy): 50% | Prevalence (mice with inflammatory cardiomyopathy / mice injected): 5/10
